This assay has as its target T1, GP73-c-FLAG fusion protein (UniProt Q8NBJ4).
T1 sequence: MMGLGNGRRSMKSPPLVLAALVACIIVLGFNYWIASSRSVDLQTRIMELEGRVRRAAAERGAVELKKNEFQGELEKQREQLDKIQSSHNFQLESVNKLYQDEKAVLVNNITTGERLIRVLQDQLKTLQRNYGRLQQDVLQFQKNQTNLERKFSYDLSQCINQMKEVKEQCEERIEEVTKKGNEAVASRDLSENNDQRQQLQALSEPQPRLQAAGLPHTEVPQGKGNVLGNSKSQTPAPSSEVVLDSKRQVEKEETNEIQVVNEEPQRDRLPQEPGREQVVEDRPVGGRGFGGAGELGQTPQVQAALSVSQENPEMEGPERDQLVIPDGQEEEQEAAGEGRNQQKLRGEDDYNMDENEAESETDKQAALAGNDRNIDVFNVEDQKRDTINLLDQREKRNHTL
Nature of the assay: affinity purification with mass spectrometry; GP73-c-FLAG expressed in MHCC-97H cells, purified on Anti-FLAG M2 Affinity Gel, SDS-PAGE, bands digested, Triple-TOF 5600 LC-MS/MS, control pCMV3-c-FLAG.

Sequences of proteins named here, by UniProt entry; tags and fusion partners are left off.
UniProt P62136: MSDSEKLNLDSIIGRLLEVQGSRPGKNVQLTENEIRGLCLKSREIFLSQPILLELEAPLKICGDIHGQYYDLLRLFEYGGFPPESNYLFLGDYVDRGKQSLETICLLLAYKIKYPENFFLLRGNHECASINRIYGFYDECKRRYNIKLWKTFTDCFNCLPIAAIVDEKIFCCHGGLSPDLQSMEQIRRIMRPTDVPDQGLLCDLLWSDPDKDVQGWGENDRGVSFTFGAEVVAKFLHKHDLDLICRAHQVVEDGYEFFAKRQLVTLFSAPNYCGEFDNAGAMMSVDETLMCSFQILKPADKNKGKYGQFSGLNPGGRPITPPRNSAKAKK
UniProt P08670: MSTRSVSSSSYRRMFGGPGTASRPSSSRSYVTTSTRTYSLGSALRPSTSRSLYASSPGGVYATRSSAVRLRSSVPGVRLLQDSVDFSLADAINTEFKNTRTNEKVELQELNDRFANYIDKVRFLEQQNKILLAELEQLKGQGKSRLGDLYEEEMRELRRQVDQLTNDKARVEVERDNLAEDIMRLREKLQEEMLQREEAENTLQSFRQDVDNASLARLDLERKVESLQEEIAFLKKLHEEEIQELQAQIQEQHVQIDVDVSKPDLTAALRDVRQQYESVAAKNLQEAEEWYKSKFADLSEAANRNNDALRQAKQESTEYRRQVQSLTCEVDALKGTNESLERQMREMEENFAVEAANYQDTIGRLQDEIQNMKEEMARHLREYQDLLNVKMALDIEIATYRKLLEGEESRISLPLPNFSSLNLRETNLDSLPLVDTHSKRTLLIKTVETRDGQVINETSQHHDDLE

Results are given in words; binding and its absence hold for the method and conditions named. In cells and extracts the contact can be indirect. These calls come from enrichment with a bait or labelling near it, and not all partners need be listed. Where a sequence is shown, tags or fusion partners need not be part of it.

On to “Serine/Threonine-protein phosphatase PP1-alpha (from UniProt P62136 1-330) (enzyme)”, for which the binding entry is recorded as “binds”.

Take vimentin (from UniProt P08670 1-466): the binding result is “binds”.
